Results taken from PubChem BioAssay AID2685 (National Center for Advancing Translational Sciences (NCATS), 2010).
The list shows a part of the results. These are further read-outs of the screen, such as a control signal, another cell line or another target. No call is given for them. Most of these compounds were active or inconclusive in the main read-out, so they are no random draw. Words in brackets tell the shape of the fitted curve; partial curves, single points and poor fits give uncertain potencies.

Experiment: qHTS Assay for Lipid Storage Modulators in Drosophila S3 Cells;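 for cell number change: cells counted by Cell Tracker Red CMTPX staining in the red channel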
Conditions: BODIPY lipid droplet fluorescence, 18-24 h; for cell number change: measured here: cell count max response, cells fed with added oleic acid
Procedure, shortened: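 Laser-scanning cytometry quantifies lipid droplet accumulation (500–530 nm total intensity; droplet/cell object ratio) in oleic acid-fed (400 uM added) Drosophila S3 cells treated with a concentration series. 20 uM Triacsin C defined 100% inhibition.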

[1] = measured here: cell number channel AC50, cells fed with added oleic acid
[2] = measured here: lipid fluorescence (Fed channel) AC50, cells fed with added oleic acid

SMILES: Cn1c(=O)c2c(=O)cc(N)[nH]c2n(C)c1=O
- cell number change: -44.6%
- AC50 [1]: 23.1 µM [falling, partial curve, poor fit]
- AC50 [2]: 9.2 µM [falling, partial curve]

SMILES: CC(C)CC(=O)NC(=S)Nc1ccc(NC(=O)c2ccco2)cc1
- cell number change: 12.9%
- AC50 [1]: 1.64 µM [rising, partial curve, poor fit]

SMILES: CC1CN(C(=O)c2c([N+](=O)[O-])cnn2C)CC(C)O1 (centres undefined)
- cell number change: -43.6%
- AC50 [1]: 0.461 µM [falling, full curve]
- AC50 [2]: 6.51 µM [falling, single point]

SMILES: COc1ccc(OC)c(NC(=S)NCc2ccc(S(N)(=O)=O)cc2)c1
- cell number change: 18.6%

SMILES: c1ccc2c(c1)NCC1CCCN21 (centres undefined)
- AC50 [1]: 6.51 µM [rising, single point]
- AC50 [2]: 29.1 µM [falling, single point]

SMILES: Cc1cc(C)c2nc(N3CCCC3)c(C#N)cc2c1
- AC50 [1]: 6.51 µM [rising, single point]
- AC50 [2]: 0.517 µM [falling, full curve, poor fit]

SMILES: O=C(Cc1ccsc1)Nc1ccc(S(=O)(=O)C(F)F)cc1
- cell number change: -22.7%

SMILES: Cc1ccc(S(=O)(=O)N2CCOCC2)cc1C(=O)Nc1ccc2c(c1)CCC2
- cell number change: -7.06%
- AC50 [2]: 0.82 µM [falling, full curve, poor fit]

SMILES: Cc1ccc(NC(=O)Nc2ncccc2C)cc1
- cell number change: -11.4%
- AC50 [2]: 2.59 µM [rising, single point]

SMILES: CCOc1cc(C2C(C(=O)c3ccco3)=C(O)C(=O)N2Cc2ccccc2)ccc1O (centres undefined)
- cell number change: -5.13%
- AC50 [2]: 0.116 µM [rising, single point]

SMILES: COc1ccc(NC(=S)Nc2ccc(OC)cc2OC)c(OC)c1
- cell number change: -66.7%
- AC50 [1]: 0.146 µM [falling, partial curve, poor fit]
- AC50 [2]: 10.3 µM [rising, single point]

SMILES: CC(C)CCNC(=O)c1cc2c(=O)n3ccccc3nc2s1
- cell number change: -36.9%
- AC50 [1]: 29.1 µM [falling, single point]

SMILES: CCOc1ccc(S(=O)(=O)Nc2cccc(C(=O)N3CC(C)OC(C)C3)c2)cc1 (centres undefined)
- cell number change: -15.4%
- AC50 [2]: 0.146 µM [falling, full curve, poor fit]

SMILES: Cc1ccc2[nH]c3c(NCCCN4CCCC4=O)ncnc3c2c1
- AC50 [1]: 3.66 µM [rising, single point]
- AC50 [2]: 3.26 µM [rising, full curve]

SMILES: CC12CCC(c3c(C(=O)Nc4nccs4)nn(-c4ccccc4)c31)C2(C)C (centres undefined)
- cell number change: -17.1%
- AC50 [2]: 1.64 µM [rising, full curve]

SMILES: Cc1nnc2sc(-c3csc4c3CCCC4)nn12
- cell number change: 79.9%
- AC50 [2]: 6.51 µM [falling, partial curve, poor fit]

SMILES: Cc1cc(C)c2c(=O)[nH]c(SCC(=O)NCc3ccccc3)nc2n1
- AC50 [2]: 29.1 µM [rising, single point]

SMILES: CC(c1ccccc1)C1CC(=O)N(CC(=O)O)C1=O (centres undefined)
- cell number change: -23.3%
- AC50 [2]: 4.11 µM [falling, full curve]

SMILES: O=C(Cc1ccccc1)Nc1ccc(NC(=O)Cc2ccccc2)c(Cl)c1
- cell number change: 15.5%
- AC50 [2]: 29.1 µM [rising, single point]

SMILES: COC(=O)c1[nH]c2ccc(C)cc2c1NC(=O)CN1CCC(C)CC1
- cell number change: 199%
- AC50 [1]: 20.6 µM [rising, single point]
- AC50 [2]: 0.731 µM [rising, single point]

SMILES: CCc1ccc(NC2=NCC(=O)N2c2ccc3c(c2)OCCO3)cc1
- cell number change: 32.7%

SMILES: Cc1ccc(S(=O)(=O)N(C)CC(=O)OCC(=O)NC(=O)NC(C)C)cc1
- cell number change: 12%
- AC50 [2]: 0.103 µM [rising, full curve, poor fit]

SMILES: O=C(CCNS(=O)(=O)c1ccc(Br)cc1)Nc1cccc(F)c1
- cell number change: -20%
- AC50 [1]: 0.731 µM [falling, full curve, poor fit]
- AC50 [2]: 29.1 µM [falling, single point]

SMILES: CC(=O)Nc1ccc(C(=O)N/C(=C/c2ccccc2)C(=O)NCc2ccco2)cc1
- cell number change: -3.63%
- AC50 [2]: 6.51 µM [falling, single point]

SMILES: CCOc1ccc(NC(=O)CN2CCc3cc4c(cc3C2)OCCCO4)cc1OCC
- cell number change: -7.41%

SMILES: CC(=O)Nc1ccc(S(=O)(=O)Nc2nc3ccccc3nc2Nc2ccc(N)cc2)cc1
- cell number change: 7.5%
- AC50 [2]: 10.3 µM [rising, single point]

SMILES: O=C(O)C1=CC[C@@H](c2ccc(Cl)cc2)N(S(=O)(=O)c2ccc(Cl)cc2)[C@H]1c1ccccc1
- cell number change: 7.06%
- AC50 [2]: 2.31 µM [rising, partial curve]

SMILES: CCOC(=O)C1=C(C)NC(=O)NC1c1cn(-c2ccccc2)nc1-c1cccs1 (centres undefined)
- cell number change: -28.3%

SMILES: CN(C)CCN(C(=O)C1CCCCC1)c1nc2cc3c(cc2s1)OCO3
- cell number change: 3.76%

SMILES: COc1ccc(C2C3=C(N=C4SCC(=O)N42)c2ccccc2CC3)cc1 (centres undefined)
- AC50 [2]: 20.6 µM [falling, single point]

SMILES: COc1ccccc1-c1nn2c(=O)cc(C)nc2s1
- AC50 [1]: 2.06 µM [rising, partial curve]
- AC50 [2]: 1.46 µM [rising, partial curve]
